Data from paper PMC9905075.
Results are given in words; binding and its absence hold for the method and conditions named. In cells and extracts the contact can be indirect. Some binding calls cover weakened binding; strength is not graded here.

Chains of the proteins cited; added tags and fusions are not shown.
UniProt P31939: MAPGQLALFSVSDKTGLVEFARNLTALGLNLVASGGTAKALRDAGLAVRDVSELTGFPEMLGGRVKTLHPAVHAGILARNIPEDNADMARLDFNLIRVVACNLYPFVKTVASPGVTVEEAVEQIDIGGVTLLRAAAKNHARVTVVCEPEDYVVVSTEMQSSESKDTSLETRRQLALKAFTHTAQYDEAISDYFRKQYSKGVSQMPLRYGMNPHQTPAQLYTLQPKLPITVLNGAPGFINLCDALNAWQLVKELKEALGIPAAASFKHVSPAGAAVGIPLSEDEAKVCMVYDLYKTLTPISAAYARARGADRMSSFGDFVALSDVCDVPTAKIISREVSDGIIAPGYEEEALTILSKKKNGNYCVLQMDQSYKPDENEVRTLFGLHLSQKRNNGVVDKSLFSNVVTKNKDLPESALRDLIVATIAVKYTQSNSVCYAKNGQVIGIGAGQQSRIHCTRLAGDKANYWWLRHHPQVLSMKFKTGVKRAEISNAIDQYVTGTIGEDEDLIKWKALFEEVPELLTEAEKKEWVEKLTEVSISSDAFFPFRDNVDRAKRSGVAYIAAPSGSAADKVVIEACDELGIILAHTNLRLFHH
UniProt Q92831: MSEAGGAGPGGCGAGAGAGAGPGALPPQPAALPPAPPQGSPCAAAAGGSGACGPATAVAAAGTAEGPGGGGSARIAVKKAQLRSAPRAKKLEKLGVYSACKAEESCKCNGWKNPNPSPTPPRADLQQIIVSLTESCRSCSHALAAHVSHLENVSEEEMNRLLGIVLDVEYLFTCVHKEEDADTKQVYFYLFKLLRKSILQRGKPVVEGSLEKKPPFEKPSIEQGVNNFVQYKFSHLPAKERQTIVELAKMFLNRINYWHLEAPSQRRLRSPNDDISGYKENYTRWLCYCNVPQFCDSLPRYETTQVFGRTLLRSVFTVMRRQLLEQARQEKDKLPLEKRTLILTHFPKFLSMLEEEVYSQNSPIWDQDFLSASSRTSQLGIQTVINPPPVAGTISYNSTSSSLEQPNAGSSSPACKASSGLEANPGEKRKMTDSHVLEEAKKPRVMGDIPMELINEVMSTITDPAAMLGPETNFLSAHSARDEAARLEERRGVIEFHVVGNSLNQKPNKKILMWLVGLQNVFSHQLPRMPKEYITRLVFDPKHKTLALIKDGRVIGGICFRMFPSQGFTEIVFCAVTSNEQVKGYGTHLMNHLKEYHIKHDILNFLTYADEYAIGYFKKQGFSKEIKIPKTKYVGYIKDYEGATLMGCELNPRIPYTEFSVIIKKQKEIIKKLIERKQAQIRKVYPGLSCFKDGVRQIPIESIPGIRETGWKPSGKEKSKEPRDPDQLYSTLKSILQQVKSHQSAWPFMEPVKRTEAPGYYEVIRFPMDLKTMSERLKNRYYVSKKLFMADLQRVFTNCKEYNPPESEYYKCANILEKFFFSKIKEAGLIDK

Legend:
[1] = target: 5-Aminoimidazole-4-Carboxamide Ribonucleotide Formyltransferase/IMP Cyclohydrolase (human (endogenous in CRC cells)) (UniProt P31939); test: co-IP; endogenous proteins in CRC cells; cells lysed in RIPA buffer with PMSF; co-IP and immunoblot
[2] = target: T1, Vitamin D receptor (human) (UniProt P11473); test: co-IP; cells lysed in RIPA buffer with PMSF; co-IP and immunoblot; cells, bait and tags not told in the text (Fig. S2f-h)
T1 sequence: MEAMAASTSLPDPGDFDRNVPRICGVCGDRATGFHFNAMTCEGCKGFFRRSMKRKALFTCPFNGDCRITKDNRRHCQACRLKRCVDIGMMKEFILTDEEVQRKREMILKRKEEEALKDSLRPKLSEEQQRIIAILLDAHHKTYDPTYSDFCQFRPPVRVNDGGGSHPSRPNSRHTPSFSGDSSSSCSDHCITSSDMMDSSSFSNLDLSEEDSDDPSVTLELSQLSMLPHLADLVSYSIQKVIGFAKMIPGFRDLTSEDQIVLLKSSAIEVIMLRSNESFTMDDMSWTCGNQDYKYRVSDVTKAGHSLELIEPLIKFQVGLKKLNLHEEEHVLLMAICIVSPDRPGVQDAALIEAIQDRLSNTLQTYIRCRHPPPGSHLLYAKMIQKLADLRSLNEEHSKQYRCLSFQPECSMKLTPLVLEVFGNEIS

| Substance | binding [1] | binding [2] |
| --- | --- | --- |
| lysine acetyltransferase 2B (from UniProt Q92831 1-832) (enzyme) | binds |  |
| p53 (wild type) (from UniProt P04637 1-393) |  | binds |
